# Reference: PubChem BioAssay (NCATS)
# Inconclusive results, whose numbers are uncertain, are shown with a selection of clear calls. Potencies beside an inconclusive call are fits to weak or partial responses and may not hold up. Activity calls are given as the source filed them. The call rests on the fitted dose curve; in most records, active means well fitted cell-killing curve with a large enough effect; inconclusive means small, poorly fitted or top-dose-only effect, or effect the other way; inactive means no such curve, though single readings can be large or run the other way.
# Experiment: Quantitative High-Throughput drug screen in 47 multiple myeloma cell lines against the NCATS MIPE library collection: KMS11_JCRBsus cell viability assay (AID 1919873); further: nearly all actives have a fitted effect of over 50% in size
# Conditions: KMS11 myeloma viability, CellTiter-Glo ATP luminescence, 48 h; series mostly up to 45.8 µM
# Description: PI: Beverly A. Mock Ph.D.
# Laboratory of Cancer Biology and Genetics,
# Center for Cancer Research, National Cancer Institute,
# National Institute of Health, Bethesda, Maryland
# Drug resistance and disease progression are common in multiple myeloma (MM) patients, underscoring the need for new therapeutic combinations. […] We hypothesized that effective combinations would reduce MYC expression and enhance p16 activity. […] These preclinical data identify potentially useful drug combinations for evaluation in drug-resistant MM and reveal potential mechanisms of combined drug sensitivity.
# Described herein is the primary MIPE qHTS used to cherrypick compounds. Validated compounds were then further tested for potential synergistic activiy.
# [1] Peat TJ, Gaikwad SM, Dubois W, Gyabaah-Kessie N, Zhang S, Gorjifard S, Phyo Z, Andres M, Hughitt VK, Simpson RM, Miller MA, Girvin AT, Taylor A, Williams D, D'Antonio N, Zhang Y, Rajagopalan A, Flietner E, Wilson K, Zhang X, Shinn P, Klumpp-Thomas C, McKnight C, Itkin Z, Chen L, Kazandijian D, Zhang J, Michalowski AM, Simmons JK, Keats J, Thomas CJ, Mock BA. Drug combinations identified by high-throughput screening promote cell cycle transition and upregulate Smad pathways in myeloma. Cancer Lett. 2023 Aug 1;568:216284. doi: 10.1016/j.canlet.2023.216284. Epub 2023 Jun 24. PMID: 37356470; PMCID: PMC10408729.
# SEQUENCE No. (e.g., 1, 2, 3, etc.); […] (e.g., Cells, Incubation, Reagent, etc.); VALUE and DESCRIPTION.
# 1; Cells; 5 uL; white, solid bottom 1536-well Greiner assay plate.
# 2; Compounds; 23 nL; Kalypsis pin tool (Wako USA) equipped with a 1536-well pin head to transfer to the assay plates.
# 3; Incubation; 48 hours; 37C incubation.
# 4; Reagent;5uL; CellTiter Glo (Promega).
# 5; Detector; 425V; Luminescence; Viewlux PerkinElmer.
# NOTES (numbers refer to Sequence numbers above)
# 1. The cell-based screening methods employed in this study were like those previously published. Briefly, the corresponding myeloma cell lines were screened in 1,536-well plates with 500 cells, 5-uL per well for inhibition of cell viability (assessed by measuring ATP levels with CellTiterGlo).
# 2. NCATS MIPE 4.0 library of approved and investigational drugs were added using the Kalypsis pin tool. Wells treated with DMSO only for 100% viability and media only for 0% viability were used as controls.
# 3. The assay plates were covered and incubated for 48 hours in a 37C, 5% CO2 incubator with controlled humidity.
# 4. After 48 hours, CellTilter-GloTM luminescent substrate mix (Promega) reagent was added to the assay plate and plates we incubated for 5 min at room temperature.
# 5. Signal was measured as median relative luminescence units on a ViewLux (PerkinElmer) multiplate reader.
# [1] Heske CM, Davis MI, Baumgart JT, Wilson K, Gormally MV, Chen L, Zhang X, Ceribelli M, Duveau DY, Guha R, Ferrer M, Arnaldez FI, Ji J, Tran HL, Zhang Y, Mendoza A, Helman LJ, Thomas CJ. Matrix Screen Identifies Synergistic Combination of PARP Inhibitors and Nicotinamide Phosphoribosyltransferase (NAMPT) Inhibitors in Ewing Sarcoma. Clin Cancer Res. 2017 Dec 1;23(23):7301-7311. doi: 10.1158/1078-0432.CCR-17-1121. Epub 2017 Sep 12. PMID: 28899971; PMCID: PMC6636827.
# Potency means the concentration at half of the fitted maximal effect.
row,SMILES,Potency
1,CCCCCCCCCCCC(CC1OC(=O)C1CCCCCC)OC(=O)C(CC(C)C)NC=O (stereo not given),inactive
2,OC[C@H]1O[C@@H](Oc2ccc(O)cc2)[C@H](O)[C@@H](O)[C@H]1O,"inconclusive: 0.0148 µM [rising, full curve, poor fit]"
3,CN1C(=O)C[C@H](C(=O)N[C@@H](Cc2cnc[nH]2)C(=O)N2CCC[C@@H]2C(N)=O)NC1=O,"inconclusive: 11.8 µM [cytotoxic, single point]"
4,Cc1ccn(-c2ccc(-c3ncco3)cc2)c(=O)c1-c1ccc2nc(N)ncc2c1,"inconclusive: 33.2 µM [cytotoxic, single point]"
5,CN1CCC(=C2c3ccccc3CC(=O)c3sccc32)CC1,inactive
6,O=C(Nc1cccc(Br)c1)c1cccc(S(=O)(=O)N2CCCCCC2)c1,active: 18.7 µM
7,CCC[C@H](N[C@@H](C)C(=O)N1[C@@H]2CCCC[C@H]2C[C@H]1C(=O)O)C(=O)OCC,inactive
8,CCOC(=O)Nc1ccc(NCc2ccc(F)cc2)nc1N,"inconclusive: 37.2 µM [cytotoxic, single point]"
9,COCCNCCCn1c(C(=O)CF)c(-c2ccc(C)cc2)c2c(N)ncnc21,"inconclusive: 18.7 µM [cytotoxic, partial curve]"
10,CNC(=O)c1ccc2cc(C3(O)CCn4cncc43)ccc2c1 (stereo not given),inactive
11,Cn1c(N2CCCCS2(=O)=O)nc(C(=O)NCc2ccc(F)cc2)c(O)c1=O,"inconclusive: 11.8 µM [cytotoxic, single point]"
12,c1coc(CNc2ncnc3nc[nH]c23)c1,inactive
13,CCC(=O)N[C@H]1CC[C@H](C(=O)N(C)c2ccc(-c3nc4ccccc4o3)cc2)C1,"inconclusive: 18.7 µM [cytotoxic, partial curve]"
14,CN(N=O)C(=O)N[C@H]1C(O)OC(CO)[C@@H](O)[C@H]1O (stereo not given in full),"inconclusive: 37.2 µM [cytotoxic, single point]"
15,Clc1ccccc1C(c1ccccc1)(c1ccccc1)n1ccnc1,"inconclusive: 18.7 µM [cytotoxic, partial curve]"
16,CCOC(=O)O[C@]1(C(=O)OCCl)CC[C@@H]2[C@H]3CCC4=CC(=O)C=C[C@]4(C)[C@@H]3[C@@H](O)C[C@@]21C,active: 0.264 µM
17,CN(C)N=Nc1nc[nH]c1C(N)=O,inactive
18,COCCCCC(=NOCCN)c1ccc(C(F)(F)F)cc1,"inconclusive: 33.2 µM [cytotoxic, single point]"
19,COc1cc(Nc2nc3ccccc3nc2NS(=O)(=O)c2ccc(NC(=O)c3ccc(C)c(OC)c3)cc2)cc(OC)c1,"inconclusive: 16.6 µM [cytotoxic, partial curve, poor fit]"
20,CN(C)c1ccc(O)c2c1C[C@H]1C[C@H]3[C@H](N(C)C)C(=O)C(C(N)=O)=C(O)[C@@]3(O)C(=O)C1=C2O,"inconclusive: 23.5 µM [cytotoxic, partial curve, poor fit]"

row,SMILES,Potency
1,CC[C@H](NC(C)C)[C@H](O)c1ccc(O)c2[nH]c(=O)ccc12,"inconclusive: 0.132 µM [cytotoxic, full curve, poor fit]"
2,Nc1cc(C(Cl)=C(Cl)Cl)c(S(N)(=O)=O)cc1S(N)(=O)=O,"inconclusive: 29.6 µM [cytotoxic, single point]"
3,CCCCCCCCCCCCCCCC(=O)OC[C@@H](NC(=O)C(Cl)Cl)[C@H](O)c1ccc([N+](=O)[O-])cc1,inactive
4,COC1=C(OC)C(=O)C(CCCCCCCCCCO)=C(C)C1=O,active: 14.8 µM
5,Cn1cnc2c(F)c(Nc3ccc(Br)cc3Cl)c(C(=O)NOCCO)cc21,inactive
6,Cc1cccc(-c2nn(C(=S)Nc3ccccc3)cc2-c2ccnc3ccccc23)n1,"inconclusive: 29.6 µM [cytotoxic, single point]"
7,CC[C@H](C=C[C@@H](C)[C@H]1CC[C@H]2[C@@H]3CC=C4C[C@@H](O)CC[C@]4(C)[C@@H]3CC[C@]12C)C(C)C,active: 5.12 µM
8,CCOC(=O)c1c(C)n(C)c2ccc(O)cc12,inactive
9,N#C[C@H]1C[C@H]2C[C@@H]2N1C(=O)[C@@H](N)C12CC3CC(CC(O)(C3)C1)C2,"inconclusive: 11.8 µM [cytotoxic, single point]"
10,Clc1ccc(COC(Cn2ccnc2)c2ccc(Cl)cc2Cl)cc1 (stereo not given),"inconclusive: 26.4 µM [cytotoxic, single point]"
11,O=c1cc(N2CCOCC2)oc2c(-c3cccc4c3sc3ccccc34)cccc12,"inconclusive: 8.33 µM [cytotoxic, full curve]"
12,COc1c(O)cc2c(c1O)[C@@H]1O[C@H](CO)[C@@H](O)[C@H](O)[C@H]1OC2=O,inactive
13,O=C(CCc1ccc(O)cc1)c1c(O)cc(O)cc1O,"inconclusive: 37.2 µM [cytotoxic, single point]"
14,Cn1c(=O)c(Oc2ccc(F)cc2F)cc2cnc(NC3CCOCC3)nc21,"inconclusive: 16.6 µM [cytotoxic, partial curve, poor fit]"
15,NC(=O)[C@@H](CCC(F)(F)F)N(Cc1ccc(-c2ncon2)cc1F)S(=O)(=O)c1ccc(Cl)cc1,"inconclusive: 16.6 µM [cytotoxic, partial curve, poor fit]"
16,CN1CCN2c3ncccc3Cc3ccccc3C2C1 (stereo not given),inactive
17,CC[C@H]1OC(=O)[C@H](C)[C@@H](O[C@H]2C[C@@](C)(OC)[C@@H](O)[C@H](C)O2)[C@H](C)[C@@H](O[C@@H]2O[C@H](C)C[C@H](N(C)C)[C@H]2O)[C@](C)(O)C[C@H](C)C(=NOCOCCOC)[C@H](C)[C@@H](O)[C@]1(C)O,"inconclusive: 9.35 µM [cytotoxic, single point]"
18,CCN(CC)CCOc1ccc(C(=C(Cl)c2ccccc2)c2ccccc2)cc1,"inconclusive: 23.5 µM [cytotoxic, single point]"
19,O=C(O)CCC1CCC(c2cc(F)ccc2F)(S(=O)(=O)c2ccc(Cl)cc2)CC1 (stereo not given),"inconclusive: 0.235 µM [cytotoxic, full curve]"
20,COc1ccccc1N1CCN(CC(O)COc2cccc3ccccc23)CC1 (stereo not given),"inconclusive: 8.33 µM [cytotoxic, partial curve, poor fit]"

# Three structures already listed, ordered by heavy-atom count, falling:
row,SMILES,Potency
16,CCOC(=O)O[C@]1(C(=O)OCCl)CC[C@@H]2[C@H]3CCC4=CC(=O)C=C[C@]4(C)[C@@H]3[C@@H](O)C[C@@]21C,active: 0.264 µM
7,CCC[C@H](N[C@@H](C)C(=O)N1[C@@H]2CCCC[C@H]2C[C@H]1C(=O)O)C(=O)OCC,inactive
13,O=C(CCc1ccc(O)cc1)c1c(O)cc(O)cc1O,"inconclusive: 37.2 µM [cytotoxic, single point]"
